# Data from the supplement of paper PMC8728848.
# This is one part of the list.
# B1: Sp8391B-bot-388-20-388 (Bacteroides ovatus) (protein)
# chain: GCQNNDENEQHYDNKLFISASNFTKEILFKAGDTNVETGLSVAIAKPEEHDIKVTMSPAPELLSTYKLAYYDETAVLLSEEHYSMPETSTTIKSGSIVSPELPIEFINTGELDIKTTYVLPVTIKSVEGIGVLQSAKTYYYVFRGASLINVVCNISRNRAYPDFKNDSKFNNLTENTMEILFKANSFPNTLNTLMGIESNYLLRIGDATIPNNQLQVATSVNNCTSADLQLESGKWYHVAVAFNKGNVKVYINGVEKLSGSTGKSSVSLGAKHTNEEDGSRCFWVGYSYKDDRYFDGVVSEVRIWNRALTAEEIQATNHFYTIEPESEGLIAYWKFDEGSGTVAKDYSVSGYDLTIEKEPKWESVSLPQ
# How the values were obtained:
# Assay in all cases: glycan array binding signal (z-score within array); higher = stronger binding
# Settings in all cases: glycan notation: IUPAC condensed, linker removed
# [1] = molecular target: Fuc(a1-2)Gal6S(b1-3)GlcNAc6S
# How it was run: (§1)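 Negative Z-scores can be read as non-binding. The Z-score is calculated within each array and then averaged across arrays of one protein sequence at different concentrations or buffers and across linkers. Arrays, 3228 in all, were curated from the Consortium for Functional Glycomics database and kept only where the protein sequence was available.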
# Fuc(a1-2)Gal6S(b1-4)Glc = molecular target: Fuc(a1-2)Gal6S(b1-4)Glc
# How it was run: as §1
# [2] = molecular target: Fuc(a1-2)Gal6S(b1-4)Glc6S
# How it was run: as §1
# Fuc(a1-2)[Gal(a1-3)]Gal = molecular target: Fuc(a1-2)[Gal(a1-3)]Gal
# How it was run: as §1
# [3] = molecular target: Fuc(a1-2)[Gal(a1-3)]Gal(b1-3)GalNAc
# How it was run: as §1
# [4] = molecular target: Fuc(a1-2)[Gal(a1-3)]Gal(b1-3)GalNAc(b1-3)Gal(a1-4)Gal(b1-4)Glc
# How it was run: as §1
# [5] = molecular target: Fuc(a1-2)[Gal(a1-3)]Gal(b1-3)GlcNAc
# How it was run: as §1
# [6] = molecular target: Fuc(a1-2)[Gal(a1-3)]Gal(b1-3)GlcNAc(b1-2)Man(a1-3)[Fuc(a1-2)[Gal(a1-3)]Gal(b1-3)GlcNAc(b1-2)Man(a1-6)]Man(b1-4)GlcNAc(b1-4)GlcNAc
# How it was run: as §1
# [7] = molecular target: Fuc(a1-2)[Gal(a1-3)]Gal(b1-3)GlcNAc(b1-2)Man(a1-3)[Fuc(a1-2)[Gal(a1-3)]Gal(b1-3)GlcNAc(b1-2)Man(a1-6)]Man(b1-4)GlcNAc(b1-4)[Fuc(a1-6)]GlcNAc
# How it was run: as §1
# [8] = molecular target: Fuc(a1-2)[Gal(a1-3)]Gal(b1-3)GlcNAc(b1-3)GalNAc
# How it was run: as §1
# [9] = molecular target: Fuc(a1-2)[Gal(a1-3)]Gal(b1-3)GlcNAc(b1-6)GalNAc
# How it was run: as §1
# [10] = molecular target: Fuc(a1-2)[Gal(a1-3)]Gal(b1-4)Glc
# How it was run: as §1
# [11] = molecular target: Fuc(a1-2)[Gal(a1-3)]Gal(b1-4)GlcNAc
# How it was run: as §1
# [12] = molecular target: Fuc(a1-2)[Gal(a1-3)]Gal(b1-4)GlcNAc(b1-2)Man
# How it was run: as §1
# [13] = molecular target: Fuc(a1-2)[Gal(a1-3)]Gal(b1-4)GlcNAc(b1-2)Man(a1-3)[Fuc(a1-2)[Gal(a1-3)]Gal(b1-4)GlcNAc(b1-2)Man(a1-6)]Man(b1-4)GlcNAc(b1-4)GlcNAc
# How it was run: as §1
# [14] = molecular target: Fuc(a1-2)[Gal(a1-3)]Gal(b1-4)GlcNAc(b1-2)Man(a1-3)[Fuc(a1-2)[Gal(a1-3)]Gal(b1-4)GlcNAc(b1-2)Man(a1-6)]Man(b1-4)GlcNAc(b1-4)[Fuc(a1-6)]GlcNAc
# How it was run: as §1
# [15] = molecular target: Fuc(a1-2)[Gal(a1-3)]Gal(b1-4)GlcNAc(b1-3)GalNAc
# How it was run: as §1
# [16] = molecular target: Fuc(a1-2)[Gal(a1-3)]Gal(b1-4)GlcNAc(b1-3)[Fuc(a1-2)[Gal(a1-3)]Gal(b1-4)GlcNAc(b1-6)]GalNAc
# How it was run: as §1
# [17] = molecular target: Fuc(a1-2)[Gal(a1-3)]Gal(b1-4)GlcNAc(b1-6)GalNAc
# How it was run: as §1
# [18] = molecular target: Fuc(a1-2)[Gal(a1-3)]Gal(b1-4)[Fuc(a1-3)]Glc
# How it was run: as §1
# [19] = molecular target: Fuc(a1-2)[Gal(a1-3)]Gal(b1-4)[Fuc(a1-3)]GlcNAc
# How it was run: as §1
# [20] = molecular target: Fuc(a1-2)[Gal(a1-3)]Gal(b1-4)[Fuc(a1-3)]GlcNAc(b1-3)GalNAc
# How it was run: as §1
# [21] = molecular target: Fuc(a1-2)[Gal(a1-4)]Gal(b1-4)GlcNAc
# How it was run: as §1
# [22] = molecular target: Fuc(a1-2)[GalNAc(a1-3)]Gal
# How it was run: as §1
# [23] = molecular target: Fuc(a1-2)[GalNAc(a1-3)]Gal(b1-3)GalNAc(a1-3)[Fuc(a1-2)]Gal(b1-4)GlcNAc
# How it was run: as §1
# [24] = molecular target: Fuc(a1-2)[GalNAc(a1-3)]Gal(b1-3)GalNAc(b1-3)Gal(a1-4)Gal(b1-4)Glc
# How it was run: as §1
# [25] = molecular target: Fuc(a1-2)[GalNAc(a1-3)]Gal(b1-3)GlcNAc
# How it was run: as §1
# [26] = molecular target: Fuc(a1-2)[GalNAc(a1-3)]Gal(b1-3)GlcNAc(b1-2)Man(a1-3)[Fuc(a1-2)[GalNAc(a1-3)]Gal(b1-3)GlcNAc(b1-2)Man(a1-6)]Man(b1-4)GlcNAc(b1-4)GlcNAc
# How it was run: as §1
# [27] = molecular target: Fuc(a1-2)[GalNAc(a1-3)]Gal(b1-3)GlcNAc(b1-2)Man(a1-3)[Fuc(a1-2)[GalNAc(a1-3)]Gal(b1-3)GlcNAc(b1-2)Man(a1-6)]Man(b1-4)GlcNAc(b1-4)[Fuc(a1-6)]GlcNAc
# How it was run: as §1
# [28] = molecular target: Fuc(a1-2)[GalNAc(a1-3)]Gal(b1-3)GlcNAc(b1-3)GalNAc
# How it was run: as §1
# [29] = molecular target: Fuc(a1-2)[GalNAc(a1-3)]Gal(b1-3)GlcNAc(b1-6)GalNAc
# How it was run: as §1
# [30] = molecular target: Fuc(a1-2)[GalNAc(a1-3)]Gal(b1-4)Glc
# How it was run: as §1
# [31] = molecular target: Fuc(a1-2)[GalNAc(a1-3)]Gal(b1-4)GlcNAc
# How it was run: as §1
# [32] = molecular target: Fuc(a1-2)[GalNAc(a1-3)]Gal(b1-4)GlcNAc(b1-2)Man
# How it was run: as §1
# [33] = molecular target: Fuc(a1-2)[GalNAc(a1-3)]Gal(b1-4)GlcNAc(b1-2)Man(a1-3)[Fuc(a1-2)[GalNAc(a1-3)]Gal(b1-4)GlcNAc(b1-2)Man(a1-6)]Man(b1-4)GlcNAc(b1-4)GlcNAc
# How it was run: as §1
# [34] = molecular target: Fuc(a1-2)[GalNAc(a1-3)]Gal(b1-4)GlcNAc(b1-2)Man(a1-3)[Fuc(a1-2)[GalNAc(a1-3)]Gal(b1-4)GlcNAc(b1-2)Man(a1-6)]Man(b1-4)GlcNAc(b1-4)[Fuc(a1-6)]GlcNAc
# How it was run: as §1
# [35] = molecular target: Fuc(a1-2)[GalNAc(a1-3)]Gal(b1-4)GlcNAc(b1-3)Gal(b1-4)GlcNAc
# How it was run: as §1
# [36] = molecular target: Fuc(a1-2)[GalNAc(a1-3)]Gal(b1-4)GlcNAc(b1-3)Gal(b1-4)GlcNAc(b1-3)Gal(b1-4)GlcNAc
# How it was run: as §1
# [37] = molecular target: Fuc(a1-2)[GalNAc(a1-3)]Gal(b1-4)GlcNAc(b1-3)GalNAc
# How it was run: as §1
# [38] = molecular target: Fuc(a1-2)[GalNAc(a1-3)]Gal(b1-4)GlcNAc(b1-3)[Fuc(a1-2)[GalNAc(a1-3)]Gal(b1-4)GlcNAc(b1-6)]GalNAc
# How it was run: as §1
# [39] = molecular target: Fuc(a1-2)[GalNAc(a1-3)]Gal(b1-4)GlcNAc(b1-6)GalNAc
# How it was run: as §1
# [40] = molecular target: Fuc(a1-2)[GalNAc(a1-3)]Gal(b1-4)[Fuc(a1-3)]GlcNAc
# How it was run: as §1
# [41] = molecular target: Fuc(a1-2)[GalNAc(a1-3)]Gal(b1-4)[Fuc(a1-3)]GlcNAc(b1-3)GalNAc
# How it was run: as §1
# [42] = molecular target: Fuc(a1-2)[GalNAc(a1-4)]Gal(b1-4)GlcNAc
# How it was run: as §1
# [43] = molecular target: Fuc(a1-2)[GalNAc(b1-3)]Gal
# How it was run: as §1
binder,measurement,setting,value
B1,glycan array binding signal (z-score),[1],-0.154
same,glycan array binding signal (z-score),Fuc(a1-2)Gal6S(b1-4)Glc,-0.727
same,glycan array binding signal (z-score),[2],-0.797
same,glycan array binding signal (z-score),Fuc(a1-2)[Gal(a1-3)]Gal,-0.086
same,glycan array binding signal (z-score),[3],0.904
same,glycan array binding signal (z-score),[4],0.514
same,glycan array binding signal (z-score),[5],-0.602
same,glycan array binding signal (z-score),[6],0.366
same,glycan array binding signal (z-score),[7],-0.214
same,glycan array binding signal (z-score),[8],0.054
same,glycan array binding signal (z-score),[9],-0.779
same,glycan array binding signal (z-score),[10],0.106
same,glycan array binding signal (z-score),[11],-0.199
same,glycan array binding signal (z-score),[12],0.057
same,glycan array binding signal (z-score),[13],0.64
same,glycan array binding signal (z-score),[14],0.064
same,glycan array binding signal (z-score),[15],-0.166
same,glycan array binding signal (z-score),[16],1.3
same,glycan array binding signal (z-score),[17],-0.541
same,glycan array binding signal (z-score),[18],-0.854
same,glycan array binding signal (z-score),[19],-0.22
same,glycan array binding signal (z-score),[20],-0.548
same,glycan array binding signal (z-score),[21],1.12
same,glycan array binding signal (z-score),[22],-0.718
same,glycan array binding signal (z-score),[23],-0.253
same,glycan array binding signal (z-score),[24],0.126
same,glycan array binding signal (z-score),[25],-0.332
same,glycan array binding signal (z-score),[26],0.439
same,glycan array binding signal (z-score),[27],-0.402
same,glycan array binding signal (z-score),[28],-0.474
same,glycan array binding signal (z-score),[29],-0.738
same,glycan array binding signal (z-score),[30],-1.4
same,glycan array binding signal (z-score),[31],-0.704
same,glycan array binding signal (z-score),[32],-0.265
same,glycan array binding signal (z-score),[33],-0.023
same,glycan array binding signal (z-score),[34],0.309
same,glycan array binding signal (z-score),[35],0.965
same,glycan array binding signal (z-score),[36],0.044
same,glycan array binding signal (z-score),[37],0.153
same,glycan array binding signal (z-score),[38],-0.308
same,glycan array binding signal (z-score),[39],0.687
same,glycan array binding signal (z-score),[40],-0.217
same,glycan array binding signal (z-score),[41],-0.673
same,glycan array binding signal (z-score),[42],-0.233
same,glycan array binding signal (z-score),[43],-0.282

# Shown as tab-separated lines: part of the list above
binder	measurement	setting	value
B1	glycan array binding signal (z-score)	[2]	-0.797
same	glycan array binding signal (z-score)	[3]	0.904
same	glycan array binding signal (z-score)	[8]	0.054
same	glycan array binding signal (z-score)	[22]	-0.718
